This series is described as follows: Salt form assessment (crystallization propensity, DSC/XRPD physical properties, appearance, counter-ion acceptability, salt suitability). In kind it is physicochemical. Further details: key: “+/+/+” indicates most favorable; “+/+” indicates more favorable; “+” indicates favorable; “−” indicates unfavorable; “−/−” indicates more unfavorable; “−/−/−” indicates most unfavorable. The note with it: for Salt suitability: overall. Here is the method:
Samples were analyzed by differential scanning calorimetry (DSC), X-ray powder diffraction (XRPD), and dynamic vapor sorption (DVS). In addition, the appearance and visual properties of each sample were assessed, in addition to propensity for crystallization.
A summary of the data obtained from the analyses of the individual salt forms of Examples 1-9 are presented in Table 10, with advantageous and detrimental properties summarized using the following nomenclature: “+/+/+” indicates most favorable; “+/+” indicates more favorable; “+” indicates favorable; “−” indicates unfavorable; “−/−” indicates more unfavorable; “−/−/−” indicates most unfavorable.

The results in this text go back to US20250051279A1, “TRYPTAMINE COMPOSITIONS AND METHODS” (priority 2022, published 2025).

`CN(C)CCc1c[nH]c2ccccc12` [Example 1, 2-(1H-indol-3-yl)-N,N-dimethylethan-1-amine]: the Counter-ion physiological acceptability result is listed as “+/+/+” and the Salt suitability result is listed as “+/+/+”.
As to `CN(C)CCc1c[nH]c2ccccc12` [Example 2, 2-(1H-indol-3-yl)-N,N-dimethylethan-1-amine], the Counter-ion physiological acceptability entry is listed as “+/+/+” and the Salt suitability entry is listed as “+/+/+”.
For the compound `CN(C)CCc1c[nH]c2ccccc12` [Example 3, 2-(1H-indol-3-yl)-N,N-dimethylethan-1-amine], the Counter-ion physiological acceptability entry is “+” and the Salt suitability entry is given as “+/+”.
Taken in the same sequence, the figures for `CN(C)CCc1c[nH]c2ccccc12` [Example 4, 2-(1H-indol-3-yl)-N,N-dimethylethan-1-amine] were “+/+/+” and “+”.
For `CN(C)CCc1c[nH]c2ccccc12` [Example 5, 2-(1H-indol-3-yl)-N,N-dimethylethan-1-amine], in that order: “+” and “−”.
Consider `CN(C)CCc1c[nH]c2ccccc12` [Example 6, 2-(1H-indol-3-yl)-N,N-dimethylethan-1-amine], for which the Counter-ion physiological acceptability entry is listed as “+” and the Salt suitability result is given as “−/−/−”.
For `CN(C)CCc1c[nH]c2ccccc12` [Example 7, 2-(1H-indol-3-yl)-N,N-dimethylethan-1-amine], in that order: “+” and “−/−/−”.
Take `CN(C)CCc1c[nH]c2ccccc12` [Example 8, 2-(1H-indol-3-yl)-N,N-dimethylethan-1-amine]: the Counter-ion physiological acceptability entry was “+/+/+” and the Salt suitability entry is reported as “−/−/−”.
Taken in the same sequence, the figures for `CN(C)CCc1c[nH]c2ccccc12` [Example 9, 2-(1H-indol-3-yl)-N,N-dimethylethan-1-amine] were “+/+/+” and “−/−/−”.
